Reference: the supplement of paper PMC10849652
This is one part of the list.

By UniProt entry, the sequences of proteins in these tests, tags left out. Where a name states a change or a piece, a line headed by the entry shows the natural chain unless it says otherwise.
UniProt O60331: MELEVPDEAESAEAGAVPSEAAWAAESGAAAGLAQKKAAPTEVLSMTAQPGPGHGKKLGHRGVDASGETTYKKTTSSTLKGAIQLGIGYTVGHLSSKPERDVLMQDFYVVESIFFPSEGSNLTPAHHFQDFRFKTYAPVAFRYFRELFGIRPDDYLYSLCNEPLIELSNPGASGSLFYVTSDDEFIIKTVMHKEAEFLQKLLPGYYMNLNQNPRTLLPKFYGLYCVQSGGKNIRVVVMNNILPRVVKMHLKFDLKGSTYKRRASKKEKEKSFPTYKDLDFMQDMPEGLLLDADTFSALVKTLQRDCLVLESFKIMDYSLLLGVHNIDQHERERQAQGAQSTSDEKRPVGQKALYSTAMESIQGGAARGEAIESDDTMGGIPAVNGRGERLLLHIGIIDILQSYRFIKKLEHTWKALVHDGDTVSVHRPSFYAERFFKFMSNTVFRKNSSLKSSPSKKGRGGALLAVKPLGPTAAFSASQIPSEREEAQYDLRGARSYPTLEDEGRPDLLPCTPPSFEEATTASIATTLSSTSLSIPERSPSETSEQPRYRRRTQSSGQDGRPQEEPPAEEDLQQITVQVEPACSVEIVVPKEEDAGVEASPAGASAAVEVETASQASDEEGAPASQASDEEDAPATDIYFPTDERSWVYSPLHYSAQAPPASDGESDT
UniProt P07205: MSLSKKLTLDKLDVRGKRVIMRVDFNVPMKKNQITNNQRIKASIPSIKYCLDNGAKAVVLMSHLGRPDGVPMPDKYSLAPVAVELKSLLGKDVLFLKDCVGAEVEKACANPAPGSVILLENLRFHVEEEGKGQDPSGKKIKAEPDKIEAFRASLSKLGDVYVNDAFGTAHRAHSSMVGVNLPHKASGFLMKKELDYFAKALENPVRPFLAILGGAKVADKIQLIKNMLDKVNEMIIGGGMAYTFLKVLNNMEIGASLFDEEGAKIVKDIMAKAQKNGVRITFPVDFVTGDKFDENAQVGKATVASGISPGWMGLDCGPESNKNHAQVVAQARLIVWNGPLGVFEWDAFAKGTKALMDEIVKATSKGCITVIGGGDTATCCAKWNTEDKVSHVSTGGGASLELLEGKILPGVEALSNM
UniProt Q99755: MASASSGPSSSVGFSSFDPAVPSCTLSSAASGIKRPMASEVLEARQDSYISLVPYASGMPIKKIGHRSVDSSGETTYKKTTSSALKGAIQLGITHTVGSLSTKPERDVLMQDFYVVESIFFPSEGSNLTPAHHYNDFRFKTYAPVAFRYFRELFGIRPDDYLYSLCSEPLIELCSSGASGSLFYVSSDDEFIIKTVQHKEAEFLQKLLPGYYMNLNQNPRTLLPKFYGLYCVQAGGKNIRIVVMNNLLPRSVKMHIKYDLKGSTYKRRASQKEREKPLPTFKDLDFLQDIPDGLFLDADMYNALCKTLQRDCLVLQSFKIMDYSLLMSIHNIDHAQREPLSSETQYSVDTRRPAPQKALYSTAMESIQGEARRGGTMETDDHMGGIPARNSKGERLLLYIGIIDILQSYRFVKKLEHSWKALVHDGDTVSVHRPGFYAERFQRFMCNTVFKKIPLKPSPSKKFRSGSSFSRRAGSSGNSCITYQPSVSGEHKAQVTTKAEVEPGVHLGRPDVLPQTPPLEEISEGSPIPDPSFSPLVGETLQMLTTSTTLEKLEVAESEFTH
UniProt Q14442: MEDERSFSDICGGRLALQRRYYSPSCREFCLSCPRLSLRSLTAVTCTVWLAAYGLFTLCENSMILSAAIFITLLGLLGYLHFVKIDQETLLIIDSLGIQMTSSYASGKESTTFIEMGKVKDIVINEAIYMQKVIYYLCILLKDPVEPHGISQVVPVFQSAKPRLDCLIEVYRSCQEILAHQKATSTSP
UniProt O95394: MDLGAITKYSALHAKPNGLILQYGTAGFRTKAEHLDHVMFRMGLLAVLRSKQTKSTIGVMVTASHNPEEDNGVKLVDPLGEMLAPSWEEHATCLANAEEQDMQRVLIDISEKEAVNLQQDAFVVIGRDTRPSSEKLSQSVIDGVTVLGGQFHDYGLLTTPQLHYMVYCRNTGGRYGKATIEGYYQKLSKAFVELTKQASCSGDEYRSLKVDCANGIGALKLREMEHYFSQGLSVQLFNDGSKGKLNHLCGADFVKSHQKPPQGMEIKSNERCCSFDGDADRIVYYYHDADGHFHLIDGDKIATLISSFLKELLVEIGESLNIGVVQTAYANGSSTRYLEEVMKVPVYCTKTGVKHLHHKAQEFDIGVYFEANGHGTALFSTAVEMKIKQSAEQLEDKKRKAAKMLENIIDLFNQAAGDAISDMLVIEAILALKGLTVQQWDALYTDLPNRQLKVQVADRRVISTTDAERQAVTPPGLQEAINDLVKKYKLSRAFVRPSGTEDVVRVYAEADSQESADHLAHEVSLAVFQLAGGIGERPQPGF
UniProt Q99623, whole entry, looked up: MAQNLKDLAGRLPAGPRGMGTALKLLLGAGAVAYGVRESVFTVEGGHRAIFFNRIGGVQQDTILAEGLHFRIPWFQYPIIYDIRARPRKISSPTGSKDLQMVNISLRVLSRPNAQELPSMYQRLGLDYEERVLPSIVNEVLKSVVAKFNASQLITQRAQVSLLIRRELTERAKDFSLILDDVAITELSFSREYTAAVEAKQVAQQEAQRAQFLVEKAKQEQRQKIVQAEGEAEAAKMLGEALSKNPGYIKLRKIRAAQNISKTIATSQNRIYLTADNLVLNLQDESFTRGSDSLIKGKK
UniProt Q9Y2B2: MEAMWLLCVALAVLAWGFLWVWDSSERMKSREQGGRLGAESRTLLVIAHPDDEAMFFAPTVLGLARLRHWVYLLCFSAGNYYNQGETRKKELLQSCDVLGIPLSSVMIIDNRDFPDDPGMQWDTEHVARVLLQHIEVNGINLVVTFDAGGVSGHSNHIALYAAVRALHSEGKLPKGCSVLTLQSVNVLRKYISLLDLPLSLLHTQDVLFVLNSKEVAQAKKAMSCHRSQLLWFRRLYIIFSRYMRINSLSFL
UniProt Q9NRD5, whole entry, looked up: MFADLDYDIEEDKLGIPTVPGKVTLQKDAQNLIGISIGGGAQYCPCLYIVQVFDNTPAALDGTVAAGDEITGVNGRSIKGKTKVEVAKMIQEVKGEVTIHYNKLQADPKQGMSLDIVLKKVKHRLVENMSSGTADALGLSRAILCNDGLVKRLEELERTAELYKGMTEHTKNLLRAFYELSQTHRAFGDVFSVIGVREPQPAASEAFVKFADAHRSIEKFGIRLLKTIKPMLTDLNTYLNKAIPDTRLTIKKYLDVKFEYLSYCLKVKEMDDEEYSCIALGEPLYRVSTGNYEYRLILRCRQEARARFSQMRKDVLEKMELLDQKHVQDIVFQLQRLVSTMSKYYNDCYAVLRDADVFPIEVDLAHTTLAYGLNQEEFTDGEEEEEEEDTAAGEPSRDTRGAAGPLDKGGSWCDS
UniProt Q8TBF5: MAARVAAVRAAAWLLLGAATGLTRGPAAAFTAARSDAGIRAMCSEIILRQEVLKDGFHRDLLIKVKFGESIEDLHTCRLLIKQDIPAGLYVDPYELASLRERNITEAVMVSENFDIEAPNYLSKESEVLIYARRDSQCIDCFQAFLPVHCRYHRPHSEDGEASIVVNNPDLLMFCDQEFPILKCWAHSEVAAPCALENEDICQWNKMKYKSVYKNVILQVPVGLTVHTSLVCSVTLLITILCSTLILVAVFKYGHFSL
UniProt Q86UU1: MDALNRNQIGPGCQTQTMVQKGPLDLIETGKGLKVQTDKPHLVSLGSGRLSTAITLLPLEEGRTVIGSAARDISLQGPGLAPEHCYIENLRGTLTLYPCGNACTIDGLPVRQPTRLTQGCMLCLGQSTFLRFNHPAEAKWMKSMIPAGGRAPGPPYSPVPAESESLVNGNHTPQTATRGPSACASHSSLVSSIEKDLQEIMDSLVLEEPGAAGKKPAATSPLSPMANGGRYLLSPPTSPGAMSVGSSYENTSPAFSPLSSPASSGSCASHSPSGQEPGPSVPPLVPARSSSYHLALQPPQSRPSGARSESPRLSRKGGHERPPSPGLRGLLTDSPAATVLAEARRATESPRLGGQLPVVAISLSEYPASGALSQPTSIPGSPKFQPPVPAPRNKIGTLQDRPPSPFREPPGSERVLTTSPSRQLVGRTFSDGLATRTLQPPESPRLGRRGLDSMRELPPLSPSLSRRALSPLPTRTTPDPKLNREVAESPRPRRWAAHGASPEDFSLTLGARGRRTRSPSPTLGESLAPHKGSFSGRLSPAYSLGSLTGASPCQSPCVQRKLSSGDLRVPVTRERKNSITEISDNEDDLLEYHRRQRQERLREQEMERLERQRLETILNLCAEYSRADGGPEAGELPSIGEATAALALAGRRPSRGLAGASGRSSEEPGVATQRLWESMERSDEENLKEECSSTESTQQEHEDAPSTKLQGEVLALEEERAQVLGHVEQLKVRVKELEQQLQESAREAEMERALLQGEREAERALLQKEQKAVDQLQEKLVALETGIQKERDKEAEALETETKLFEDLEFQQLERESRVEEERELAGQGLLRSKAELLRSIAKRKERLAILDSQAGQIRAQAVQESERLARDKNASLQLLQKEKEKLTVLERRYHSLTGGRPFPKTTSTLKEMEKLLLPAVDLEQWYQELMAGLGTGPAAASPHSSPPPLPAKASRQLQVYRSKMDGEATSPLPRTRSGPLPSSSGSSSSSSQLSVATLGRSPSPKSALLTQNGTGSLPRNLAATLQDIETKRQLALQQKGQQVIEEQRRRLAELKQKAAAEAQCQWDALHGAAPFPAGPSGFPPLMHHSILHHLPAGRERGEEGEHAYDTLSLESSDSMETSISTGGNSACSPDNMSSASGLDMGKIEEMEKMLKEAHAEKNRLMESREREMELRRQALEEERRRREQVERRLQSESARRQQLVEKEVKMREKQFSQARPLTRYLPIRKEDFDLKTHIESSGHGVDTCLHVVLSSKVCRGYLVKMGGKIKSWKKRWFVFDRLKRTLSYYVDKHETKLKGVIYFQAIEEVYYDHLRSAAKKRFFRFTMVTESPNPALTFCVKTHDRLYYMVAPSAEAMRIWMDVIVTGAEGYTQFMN
UniProt O95427: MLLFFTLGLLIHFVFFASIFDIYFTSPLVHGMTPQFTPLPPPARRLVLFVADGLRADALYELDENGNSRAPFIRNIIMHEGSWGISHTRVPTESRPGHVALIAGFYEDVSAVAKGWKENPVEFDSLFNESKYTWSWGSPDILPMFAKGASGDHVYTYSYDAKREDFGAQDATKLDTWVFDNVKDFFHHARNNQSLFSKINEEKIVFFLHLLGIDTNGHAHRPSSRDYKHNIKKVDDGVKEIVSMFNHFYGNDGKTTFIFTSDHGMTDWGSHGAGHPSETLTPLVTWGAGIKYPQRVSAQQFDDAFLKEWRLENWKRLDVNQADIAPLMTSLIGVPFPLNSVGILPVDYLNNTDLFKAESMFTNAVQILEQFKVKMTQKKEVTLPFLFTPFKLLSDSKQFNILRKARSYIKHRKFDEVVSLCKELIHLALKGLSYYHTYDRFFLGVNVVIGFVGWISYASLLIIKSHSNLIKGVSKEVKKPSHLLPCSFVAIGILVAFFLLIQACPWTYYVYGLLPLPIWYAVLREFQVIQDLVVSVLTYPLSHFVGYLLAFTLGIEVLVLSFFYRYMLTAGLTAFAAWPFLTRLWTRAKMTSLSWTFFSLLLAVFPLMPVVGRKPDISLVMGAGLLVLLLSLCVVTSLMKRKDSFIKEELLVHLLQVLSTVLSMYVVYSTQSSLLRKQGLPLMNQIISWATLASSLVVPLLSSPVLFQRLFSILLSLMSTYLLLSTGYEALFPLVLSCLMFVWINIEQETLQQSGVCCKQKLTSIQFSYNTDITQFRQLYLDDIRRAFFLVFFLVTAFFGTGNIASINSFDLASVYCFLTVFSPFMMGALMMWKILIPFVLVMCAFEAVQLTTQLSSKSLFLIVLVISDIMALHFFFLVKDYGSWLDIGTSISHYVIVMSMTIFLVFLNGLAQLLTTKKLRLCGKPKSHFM
UniProt Q13492: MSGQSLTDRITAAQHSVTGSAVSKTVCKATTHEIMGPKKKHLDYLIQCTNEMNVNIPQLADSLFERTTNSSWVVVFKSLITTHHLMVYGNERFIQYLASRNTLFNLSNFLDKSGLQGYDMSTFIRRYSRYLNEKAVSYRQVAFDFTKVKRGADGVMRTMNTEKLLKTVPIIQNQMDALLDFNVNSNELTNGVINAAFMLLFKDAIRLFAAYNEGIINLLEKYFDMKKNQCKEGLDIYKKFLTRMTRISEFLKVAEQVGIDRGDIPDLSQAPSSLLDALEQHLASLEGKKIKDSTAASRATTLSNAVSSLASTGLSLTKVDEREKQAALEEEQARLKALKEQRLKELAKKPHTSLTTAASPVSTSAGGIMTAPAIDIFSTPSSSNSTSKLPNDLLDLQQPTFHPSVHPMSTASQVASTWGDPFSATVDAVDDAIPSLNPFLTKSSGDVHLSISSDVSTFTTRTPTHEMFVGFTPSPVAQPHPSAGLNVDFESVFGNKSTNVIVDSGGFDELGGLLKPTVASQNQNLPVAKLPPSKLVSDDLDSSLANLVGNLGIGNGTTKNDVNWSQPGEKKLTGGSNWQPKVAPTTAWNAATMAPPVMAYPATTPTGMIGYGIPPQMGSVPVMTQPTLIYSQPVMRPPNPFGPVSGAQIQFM

Experiments:
Experiment in all cases: log2 fold change, soluble protein after heating vs DMSO (PISA); higher = thermal stabilisation; K562 lysate, 10 uM; active = over 0.2 and 3.5 SD of the protein, either way, in both replicates (recomputed)
[1] = compound: CS(=O)(=O)CCNCc1ccc(-c2ccc3ncnc(Nc4ccc(OCc5cccc(F)c5)c(Cl)c4)c3c2)o1 [lapatinib]
Procedure, shortened: (§1)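 K562 pellets were dounce-homogenised in PBS pH 7.4 with 1 mM MgCl2, and the crude extract at 1 mg/mL protein was treated with 10 μM compound for 30 min. Aliquots were heated for 3 min across 48°C-58°C, pooled, and brought to 0.5% NP-40 at 4°C; soluble protein was the supernatant after 21,000xg for 90 min. Soluble protein was quantified by TMTpro 16plex LC-MS/MS with channel sums equalised, and reported as log2 fold change in thermal stability against DMSO controls, with values from duplicates.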

[2] = compound: CS(=O)(=O)N1CCN(Cc2cc3nc(-c4cccc5[nH]ncc45)nc(N4CCOCC4)c3s2)CC1 [pictilisib]
Procedure, shortened: as §1

[3] = compound: C[C@@H](Oc1cc(-c2cnn(C3CCNCC3)c2)cnc1N)c1c(Cl)ccc(F)c1Cl [crizotinib]
Procedure, shortened: as §1

[4] = compound: C[C@H](C1=CC=C(C=C1)C(=O)NC2=C3C=CNC3=NC=C2)N
Procedure, shortened: as §1

[5] = compound: C[C@H](Nc1ncnc2nc[nH]c12)c1cc2cccc(Cl)c2c(=O)n1-c1ccccc1 [duvelisib]
Procedure, shortened: as §1

[6] = compound: Cc1cc(Nc2cc(CN3CCOCC3)c3nc(C)c(Cc4ccc(Cl)cc4F)n3n2)n[nH]1 [gandotinib]
Procedure, shortened: as §1

[7] = compound: Cc1cc(Nc2cc(N3CCN(C)CC3)nc(Sc3ccc(NC(=O)C4CC4)cc3)n2)n[nH]1 [tozasertib]
Procedure, shortened: as §1

[8] = compound: Cc1ccc(-n2nc(C(C)(C)C)cc2NC(=O)Nc2ccc(OCCN3CCOCC3)c3ccccc23)cc1 [doramapimod]
Procedure, shortened: as §1

[9] = compound: Cc1ccc(NC(=O)c2ccc(CN3CC[C@H](N(C)C)C3)c(C(F)(F)F)c2)cc1Nc1nccc(-c2cncnc2)n1 [bafetinib]
Procedure, shortened: as §1

[10] = compound: Cc1cccc(CC(=O)N2CCc3c2ccc(-c2cn(C)c4ncnc(N)c24)c3F)n1
Procedure, shortened: as §1

| Target | log2 fold change [1] | log2 fold change [2] | log2 fold change [3] | log2 fold change [4] | log2 fold change [5] | log2 fold change [6] | log2 fold change [7] | log2 fold change [8] | log2 fold change [9] | log2 fold change [10] |
| --- | --- | --- | --- | --- | --- | --- | --- | --- | --- | --- |
| PINX1 (UniProt Q96BK5) | inactive: 0.081 | inactive: -0.049 | inactive: -0.032 | inactive: -0.005 | inactive: 0.111 | inactive: 0.201 | inactive: 0.136 | inactive: 0.035 | inactive: -0.07 | inactive: 0.265 |
| PIK3C2A (UniProt O00443) | inactive: 0.004 | inactive: -0.02 | inactive: -0.027 |  | inactive: -0.005 |  | inactive: -0.201 | inactive: -0.069 | inactive: -0.017 |  |
| PIP5K1C isoform 3 (UniProt O60331) | inactive: -0.077 | inactive: 0.017 | inactive: -0.09 |  | inactive: 0.032 |  | inactive: -0.005 | inactive: 0.028 | inactive: 0.076 |  |
| PLEKHF2 (UniProt Q9H8W4) | inactive: 0.036 | inactive: 0.013 | inactive: -0.073 | inactive: 0.008 | inactive: -0.093 | inactive: -0.019 | inactive: 0.04 | inactive: 0.034 | inactive: 0.062 | inactive: 0.017 |
| PGK2 (UniProt P07205) | inactive: 0.026 |  |  | inactive: 0.098 |  | inactive: -0.044 | inactive: 0.292 |  |  | inactive: -0.045 |
| PHF13 (UniProt Q86YI8) | inactive: -0.033 | inactive: 0.022 | inactive: -0.235 | inactive: -0.517 |  | inactive: 0.352 |  | inactive: 0.123 | inactive: -0.113 | inactive: 0.479 |
| PIP5K1A (UniProt Q99755) | inactive: -0.117 | inactive: 0.07 | inactive: -0.168 | inactive: 0.03 | inactive: -0.043 | inactive: -0.013 |  | inactive: 0.093 | inactive: -0.062 | inactive: -0.034 |
| PIP4K2B (UniProt P78356) | inactive: 0.033 | inactive: 0.044 | inactive: -0.019 | inactive: 0.01 | inactive: 0.006 | inactive: 0.029 | inactive: -0.029 | inactive: -0.001 | inactive: 0.164 | inactive: -0.067 |
| PIGU (UniProt Q9H490) | inactive: -0.1 | inactive: 0.005 | inactive: -0.027 | inactive: -0.094 | inactive: -0.027 | inactive: -0.044 |  | inactive: 0.015 | inactive: -0.122 | inactive: 0.148 |
| PHGDH, A0A286YFE1 | inactive: -0.214 | inactive: 0.114 |  |  | inactive: 0.244 |  |  |  | inactive: -0.313 |  |
| PIGH (UniProt Q14442) | inactive: -0.06 | inactive: 0.052 | inactive: 0.066 | inactive: -0.05 |  | inactive: 0.111 |  | inactive: -0.055 | inactive: -0.069 | inactive: 0.032 |
| PGM3 (UniProt D6RCQ8) | inactive: 0.185 | inactive: -0.415 |  |  |  |  |  |  | inactive: -0.391 |  |
| PLCG2 (UniProt P16885) | inactive: -0.027 | inactive: 0.061 | inactive: 0.046 | inactive: -0.369 |  | inactive: -0.279 | inactive: 0.048 | inactive: -0.069 | inactive: -0.16 | inactive: 0.058 |
| PIEZO2 isoform 4 (UniProt Q9H5I5) | inactive: -0.069 |  | inactive: -0.041 |  |  |  | inactive: 0.011 | inactive: -0.055 |  |  |
| PGM3 isoform 4 (UniProt O95394) | inactive: -0.011 | inactive: 0 | inactive: -0.011 | inactive: 0.028 | inactive: 0 | inactive: -0.042 | inactive: -0.003 | inactive: 0.011 | inactive: -0.006 | inactive: -0.042 |
| PITHD1 (UniProt Q9GZP4) | inactive: 0.006 | inactive: 0.002 | inactive: -0.006 | inactive: -0.083 | inactive: 0.001 | inactive: 0.101 | inactive: -0.013 | inactive: -0.036 | inactive: 0.16 | inactive: 0.037 |
| PHB2 (UniProt Q99623) | inactive: -0.03 | inactive: -0.015 | inactive: 0.013 | inactive: -0.038 | inactive: -0.002 | inactive: 0.021 | inactive: 0.003 | inactive: -0.002 | inactive: 0.019 | inactive: 0.002 |

2 records picked at random from the list so far, as already listed:

| Target | log2 fold change [1] | log2 fold change [2] | log2 fold change [3] | log2 fold change [4] | log2 fold change [5] | log2 fold change [6] | log2 fold change [7] | log2 fold change [8] | log2 fold change [9] | log2 fold change [10] |
| --- | --- | --- | --- | --- | --- | --- | --- | --- | --- | --- |
| PIEZO2 isoform 4 (UniProt Q9H5I5) | inactive: -0.069 |  | inactive: -0.041 |  |  |  | inactive: 0.011 | inactive: -0.055 |  |  |
| PHB2 (UniProt Q99623) | inactive: -0.03 | inactive: -0.015 | inactive: 0.013 | inactive: -0.038 | inactive: -0.002 | inactive: 0.021 | inactive: 0.003 | inactive: -0.002 | inactive: 0.019 | inactive: 0.002 |

Following part

| Target | log2 fold change [1] | log2 fold change [2] | log2 fold change [3] | log2 fold change [4] | log2 fold change [5] | log2 fold change [6] | log2 fold change [7] | log2 fold change [8] | log2 fold change [9] | log2 fold change [10] |
| --- | --- | --- | --- | --- | --- | --- | --- | --- | --- | --- |
| PLEC (UniProt Q15149) | inactive: -0.003 | inactive: -0.006 | inactive: -0.024 | inactive: -0.045 | inactive: -0.071 | inactive: 0.041 | inactive: 0.047 | inactive: 0.04 | inactive: -0.04 | inactive: 0.043 |
| PLA2G12A (UniProt Q9BZM1) | inactive: 0.092 | inactive: 0.086 | inactive: -0.055 | inactive: 0.046 | inactive: -0.017 | inactive: 0.12 |  | inactive: -0.026 | inactive: 0.016 | inactive: 0.084 |
| PIGL (UniProt Q9Y2B2) | inactive: -0.06 | inactive: 0.031 | inactive: 0.041 |  | inactive: -0.14 |  | inactive: -0.069 | inactive: -0.192 | inactive: -0.038 |  |
| PIGM (UniProt Q9H3S5) | inactive: -0.073 | inactive: 0 | inactive: -0.049 |  |  |  | inactive: -0.086 | inactive: 0.084 | inactive: -0.11 |  |
| PLCB3 (UniProt Q01970) | inactive: -0.011 | inactive: -0.005 | inactive: 0.014 | inactive: 0.017 | inactive: 0.011 | inactive: -0.008 | inactive: 0.028 | inactive: -0.026 | inactive: -0.019 | inactive: -0.001 |
| PHC3 isoform 7 (UniProt Q8NDX5) | inactive: -0.031 |  | inactive: 0.06 | inactive: -0.044 | inactive: 0.072 | inactive: -0.041 | inactive: 0.133 | inactive: -0.101 |  | inactive: 0.141 |
| PIEZO1 (UniProt Q92508) | inactive: -0.018 | inactive: 0.003 | inactive: 0.014 | inactive: -0.012 | inactive: -0.02 | inactive: 0.027 | inactive: 0.009 | inactive: -0.011 | inactive: 0.009 | inactive: 0.031 |
| PIK3CD (UniProt O00329) | inactive: -0.043 | inactive: 0.142 | inactive: -0.037 | inactive: 0.035 | active: 0.477 | inactive: 0.389 |  | inactive: 0.03 | inactive: -0.136 | inactive: -0.016 |
| PLAU (UniProt P00749) | inactive: -0.03 |  |  |  | inactive: -0.209 |  | inactive: 0.14 |  |  |  |
| PICK1 (UniProt Q9NRD5) | inactive: 0.032 | inactive: -0.153 | inactive: 0.004 | inactive: -0.084 | inactive: 0.061 | inactive: 0.08 | inactive: 0.108 | inactive: -0.145 | inactive: -0.159 | inactive: 0.113 |
| PKIB isoform 2 (UniProt Q9C010) | inactive: 0.088 |  |  | inactive: 0.12 |  | inactive: -0.156 |  |  |  | inactive: 0.128 |
| PIGX isoform 2 (UniProt Q8TBF5) | inactive: -0.117 | inactive: 0.054 | inactive: -0.008 | inactive: -0.072 | inactive: 0 | inactive: 0.056 | inactive: -0.034 | inactive: -0.024 | inactive: -0.039 | inactive: 0.028 |
| PKM (UniProt H3BTN5) | inactive: 0.115 | inactive: -0.204 | inactive: -0.048 |  |  |  | inactive: 0.111 | inactive: -0.004 | inactive: 0.312 |  |
| PHLDB1 (UniProt Q86UU1) | inactive: -0.052 | inactive: 0.034 | inactive: -0.154 | inactive: -0.06 | inactive: -0.028 | inactive: 0.073 | inactive: -0.047 | inactive: 0.076 | inactive: -0.112 | inactive: 0.031 |
| PIGN (UniProt O95427) | inactive: -0.16 |  |  |  | inactive: -0.005 |  | inactive: 0.116 |  |  |  |
| PICALM (UniProt Q13492) | inactive: 0.012 | inactive: 0.001 | inactive: 0.024 | inactive: 0.052 | inactive: 0.012 | inactive: 0.022 | inactive: 0.013 | inactive: 0.028 | inactive: -0.055 | inactive: -0.007 |
| PLCB4 isoform 4 (UniProt Q15147) | inactive: -0.264 |  |  |  |  |  |  |  |  |  |

Individual results from the entries so far:
Entry for PLAU (UniProt P00749) under log2 fold change [1]: inactive: -0.03
Entry for PHLDB1 (UniProt Q86UU1) under log2 fold change [6]: inactive: 0.073
